At least one compound was matched to its structure with a doubt left.
Tested on: S.mutans 6715
Assay: Inhibition of bacterial growth (24 h, optical density)
Format: cell-based, Streptococcus mutans
Conditions: concentration causing 50% inhibition in growth, means of triplicate experiments

Question: With `Cl.N.[Cl-].[Cl-].[Zn+2]` [ZnNH4Cl3] as the compound, how does the ID/50 read?
Answer: Its ID/50 is 4.10 mM/L.

From patent publication EP0121012A1, “Oral compositions” (UNILEVER PLC, priority 1983, dated 1984)
